Measured data: PubChem BioAssay AID686937 (Drosophila RNAi Screening Center, 2013)
Aim: 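Genes in the fly needed for secretion of protein constitutively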 (primary screen). System: Drosophila S2 cells expressing secreted horseradish peroxidase. Knock-down reagent: long dsRNA against Drosophila genes. Time to read-out: about 5.5 days (5 days dsRNA, then 12 h reporter induction). Conditions: reporter expression induced after 5 days of dsRNA, read 12 h later; inducer not stated. Measurement: 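Chemiluminescent measurement of peroxidase in the medium 12 h after reporter induction, following 5 days of dsRNA, given as a z-score per plate; higher means more secretion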. Direction: z-score: higher = more reporter secreted into medium.
The screen tested about 23,000 reagents; below is an unselected part of those with a known target gene and a result. 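Reduced-secretion tags in replicate 1 do not always agree with the z-scores; no criterion for assigning the tags was given.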 Reagents against one gene are numbered here. The record does not give: the amount of reagent.

target | dsRNA no. | z-score, replicate 1 | z-score, replicate 2 | z-score, replicate 3 | z-score, replicate 4 | phenotype, replicate 1
CG14113 | 1 | 0.12 | 0.29 | – | – | –
CG8301 | 1 | 0.29 | 0.52 | – | – | –
CG42365 | 1 | 0.05 | 0.15 | – | – | –
JYalpha | 1 | 0.26 | 0.35 | – | – | –
Tom40 (Translocase of outer membrane 40) | 1 | -0.15 | -1.37 | – | – | –
CG31457 | 1 | -0.62 | -0.35 | – | – | –
CG40245 (retired record) | 1 | 0.04 | 0.19 | – | – | –
Vago | 1 | 0.14 | 0.15 | – | – | –
AMPdeam (AMP deaminase) | 1 | 0.25 | -1.57 | – | – | –
AMPdeam (AMP deaminase) | 2 | -0.86 | -0.29 | – | – | –
AMPdeam (AMP deaminase) | 3 | -2.19 | -1.54 | – | – | reduced secretion
AMPdeam (AMP deaminase) | 4 | 0.43 | 0.47 | – | – | –
CG8008 | 1 | 0.16 | 0.36 | – | – | –
Grx5 (Glutaredoxin 5) | 1 | 0.44 | -0.18 | – | – | –
Sar1 (Secretion-associated Ras-related 1) | 1 | -3.16 | -3.3 | – | – | reduced secretion
Sar1 (Secretion-associated Ras-related 1) | 2 | -0.13 | -0.23 | – | – | –
blanks | 1 | 0.55 | 0.4 | – | – | –
CG13445 | 1 | -0.21 | -0.38 | – | – | –
CG31797 | 1 | 0.24 | 0.51 | – | – | –
CG31797 | 2 | 0.51 | 0.46 | – | – | –
dx (deltex) | 1 | 0.29 | 0.42 | – | – | –
MED30 (Mediator complex subunit 30) | 1 | -0.07 | -0.13 | – | – | –
nompB (no mechanoreceptor potential B) | 1 | 0.1 | 0.19 | – | – | –
nompB (no mechanoreceptor potential B) | 2 | 0.1 | 0.33 | -0.33 | -0.13 | –
REPTOR-BP (REPTOR-binding partner) | 1 | 0.03 | 0.43 | – | – | –
Sbf (SET domain binding factor) | 1 | 0.36 | 0.47 | – | – | –
Hpr1 | 1 | 0.14 | -0.58 | – | – | –
FucT6 (alpha1,6-fucosyltransferase) | 1 | -0.62 | -0.27 | – | – | –
fd96Cb (forkhead domain 96Cb) | 1 | 0.22 | 0.12 | – | – | –
CG3939 | 1 | 0.48 | 0.41 | – | – | –
Vajk4 | 1 | 0.17 | 0.3 | – | – | –
Vajk4 | 2 | 0.14 | 0.09 | – | – | –
CG13023 | 1 | 0.26 | -0.1 | – | – | –
CG13023 | 2 | 0.27 | 0.16 | – | – | –

As entered above:
CG13445, z-score, replicate 1 = -0.21
Value for nompB (no mechanoreceptor potential B) #1 under “z-score, replicate 1”: 0.1
Entry of CG3939 in “z-score, replicate 2”: 0.41
Sar1 (Secretion-associated Ras-related 1) #2, z-score, replicate 2 → -0.23
For “z-score, replicate 2”, Vago shows 0.15
